# Test results reported in PubChem BioAssay AID493014 (National Center for Advancing Translational Sciences (NCATS), 2011).
# The list shows a part of the results. Further columns of the screen follow, without active or inactive calls. Compounds called inactive in the main read-out are mostly missing here. Potencies come from curve fits of mixed quality, noted in brackets.
# Assay: qHTS Assay to Find Inhibitors of Chronic Active B-Cell Receptor Signaling
# Settings: ABC-DLBCL IkBa-CBG/CBR reporter, luminescence ratio (green luciferase fused to IkBa over red control in TMD8 lymphoma cells), 4 h
# Outline: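 Doxycycline induced both beetle luciferases in TMD8 lymphoma cells; IKK-driven degradation limits the IkappaBalpha-fused green signal, while red luminescence normalises for cell number and nonspecific effects. Compounds tested up to 46 uM, 4 hrs.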
# [1] = measured here: CBR red luminescence, cell number
# [2] = measured here: IkBa-CBG green luminescence
Structure (SMILES),AC50 [1],AC50 [2]
COc1ccc(C2NC(c3ccc(OC)cc3)C([N+](=O)[O-])C(C)(C)C2[N+](=O)[O-])cc1 (configuration not stated),"35.5 µM [rising, partial curve, poor fit]",
CC(C)Cn1nc(NC(=O)c2ccco2)c2cc3ccccc3nc21,"0.398 µM [falling, full curve, poor fit]",
CC(C)c1ccc(NC(=O)C(c2ccccc2)N2CC(=O)Nc3ccccc32)cc1 (configuration not stated),"23.1 µM [rising, partial curve]",
CN1CCN(S(=O)(=O)c2cc([N+](=O)[O-])ccc2Cl)CC1,"35.5 µM [rising, single point]",
CC(NCC(=O)Nc1cc(S(=O)(=O)N2CCOCC2)ccc1Cl)c1ccc(Cl)cc1Cl (configuration not stated),"18.4 µM [falling, single point]",
S=c1[nH]c2cc(-c3ccccc3)ccc2o1,"5.62 µM [rising, single point]",
COc1ccccc1NC(=S)N(CCCN(C)C)Cc1cc2cc3c(cc2[nH]c1=O)OCO3,"11.2 µM [falling, partial curve]",
COc1cc(CNn2nnnc2N)cc(Br)c1OCC(=O)NC(C)(C)C,"0.794 µM [rising, full curve, poor fit]",
CCCNC(=O)Nc1ccc(C)cc1C,"0.562 µM [rising, full curve, poor fit]",
CC(C)Oc1ccc(C2CC(=O)N(C)C2=O)cc1 (configuration not stated),"17.8 µM [rising, partial curve, poor fit]",
CCCCOC(=O)CCn1c(=S)oc2ccccc21,"35.5 µM [rising, single point]",
CCOC(=O)CCSc1nc(C)c2cc(C)c(C)cc2n1,"8.2 µM [falling, partial curve, poor fit]",
O=C(NCCN1CCCCCC1)c1ccc(CS(=O)(=O)c2ccc(Br)cc2)o1,"5.8 µM [falling, partial curve, poor fit]",
O=C(O)c1ccccc1C(=O)NCCc1c(C(=O)O)[nH]c2ccc(Cl)cc12,"35.5 µM [rising, partial curve, poor fit]",
CC(=O)Nc1ccccc1-c1nc2cc(C#N)c(C#N)cc2[nH]c1=O,"5.01 µM [rising, single point]",
COc1ccccc1NS(=O)(=O)c1ccc(O)c(C(=O)OCC(=O)c2ccc(Cl)cc2Cl)c1,"2.82 µM [falling, partial curve, poor fit]",
O=C(COC(=O)c1ccccc1O)Nc1ccc(OC(F)F)cc1,"2.31 µM [rising, partial curve, poor fit]",
COc1ccc(CNC[C@@H](CCCCN(C)Cc2ccc(OC)cc2)N2C[C@H](c3ccccc3)N(CCc3ccc(Cl)c(Cl)c3)C(=O)C2=O)cc1,"22.4 µM [rising, single point]",
COc1ccc(C(=O)/C=C/c2ccc(OC)c(CN3CCOCC3)c2)cc1,"25.9 µM [falling, single point]",
O=S1(=O)Nc2c(ccc3cccnc23)-c2ccccc21,"1 µM [rising, full curve]","1.58 µM [falling, full curve]"

# Look-ups from the entries so far:
# In AC50 [1], S=c1[nH]c2cc(-c3ccccc3)ccc2o1 is entered as 5.62 µM [rising, single point]
# In AC50 [1], O=C(NCCN1CCCCCC1)c1ccc(CS(=O)(=O)c2ccc(Br)cc2)o1 is entered as 5.8 µM [falling, partial curve, poor fit]

# (further entries)

Structure (SMILES),AC50 [1],AC50 [2]
COc1ccc(-c2[nH]ncc2/C=N\NS(=O)(=O)c2ccccc2)cc1OC,"6.51 µM [rising, single point]",
Oc1[nH]c2ccccc2c1N=NC(=S)NCC1CCCO1 (configuration not stated),,"29.1 µM [falling, partial curve, poor fit]"
CCOC(=O)c1ccc(NC(=O)C2CC2)cc1,"15.8 µM [rising, partial curve, poor fit]",
CSc1ccccc1NC(=O)COC(=O)c1ccc(O)cc1,"3.98 µM [falling, full curve]",
CCOC(=O)N1CCN(C(=O)c2cccc(S(=O)(=O)Nc3ccc(Br)cc3)c2)CC1,"5.17 µM [rising, single point]",
Cc1cc(OCC(=O)NCCO)ccc1Cl,"0.116 µM [falling, full curve, poor fit]",
C/C(=N\Nc1ccc([N+](=O)[O-])cc1)c1cccc(N)c1,"1.58 µM [rising, partial curve, poor fit]",
Cc1ccccc1OCC(O)Cn1c(NCc2ccco2)nc2c1c(=O)n(C)c(=O)n2C (configuration not stated),"28.2 µM [falling, single point]",
Cc1ccc(CSc2ccc(-c3ccco3)nn2)cc1,"2.91 µM [rising, full curve, poor fit]",
Cc1nc(NC(=O)C(C)Oc2cccc(Cl)c2)sc1C(=O)N(C)C (configuration not stated),"23.1 µM [rising, partial curve, poor fit]",
Cc1cccc(-n2cnc(C(=O)NC3CCCCCC3)c2)n1,"1.12 µM [falling, full curve]",
N#C/C(C(=S)Nc1ccccc1)=C1/NN=C(N2CCOCC2)N1c1ccccc1,"35.5 µM [rising, single point]","25.1 µM [falling, single point]"
CCN1C(=O)CC(n2c(C)nc3ccccc32)C1=O (configuration not stated),"29.1 µM [rising, single point]",
Cc1ccc(C(=O)NCC(=O)OCc2csc(-c3ccccc3)n2)cc1,"29.1 µM [rising, single point]",
CCc1cc(CC)c(/C=N/NC(N)=O)c(CC)c1/C=N/NC(N)=O,"5.62 µM [falling, full curve]",
Cc1ccccc1NC(=O)N1CCCC(c2nc(-c3ccc(C(C)C)cc3)no2)C1 (configuration not stated),"2.24 µM [falling, full curve, poor fit]",
Cc1cccc(-[n+]2c(-c3cccc(Br)c3)[nH]c3nc4ccccc4nc32)c1,"2.51 µM [rising, partial curve, poor fit]",
O=C(CN1C(=O)C(=O)N(CCC2=CCCCC2)C1=O)c1c[nH]c2ccccc12,"5.17 µM [falling, partial curve]",
O=[N+]([O-])c1cccc(COc2ncnc3cc([N+](=O)[O-])ccc23)c1,"8.91 µM [falling, partial curve]",
CCCCOC(=O)Nc1nc(C)c(C(=O)OCC)s1,"0.1 µM [falling, full curve, poor fit]",
